Results are given in words; binding and its absence hold for the method and conditions named. In cells and extracts the contact can be indirect. These calls come from enrichment with a bait or labelling near it, and not all partners need be listed.

Protein sequences, listed by entry. Tags and fused reporters are not part of them.
UniProt Q9VQ93: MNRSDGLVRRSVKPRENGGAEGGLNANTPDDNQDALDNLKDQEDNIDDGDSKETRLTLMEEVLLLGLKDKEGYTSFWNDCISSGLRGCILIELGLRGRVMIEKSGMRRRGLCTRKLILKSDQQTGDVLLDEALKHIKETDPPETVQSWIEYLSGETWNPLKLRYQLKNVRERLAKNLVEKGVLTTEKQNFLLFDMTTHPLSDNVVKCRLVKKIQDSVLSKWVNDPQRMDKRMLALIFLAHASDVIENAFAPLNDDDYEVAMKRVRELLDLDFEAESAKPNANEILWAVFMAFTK

The labels stand for the following.
B1: Sphingosine-1-phosphate lyase Sply (protein, UniProt Q9V7Y2 1-545)
chain: MRPFSGSDCLKPVTEGINRAFGAKEPWQVATITATTVLGGVWLWTVICQDENLYIRGKRQFFKFAKKIPAVRRQVETELAKAKNDFETEIKKSNAHLTYSETLPEKGLSKEEILRLVDEHLKTGHYNWRDGRVSGAVYGYKPDLVELVTEVYGKASYTNPLHADLFPGVCKMEAEVVRMACNLFHGNSASCGTMTTGGTESIVMAMKAYRDFAREYKGITRPNIVVPKTVHAAFDKGGQYFNIHVRSVDVDPETYEVDIKKFKRAINRNTILLVGSAPNFPYGTIDDIEAIAALGVKYDIPVHVDACLGSFVVALVRNAGYKLRPFDFEVKGVTSISADTHKYGFAPKGSSVILYSDKKYKDHQFTVTTDWPGGVYGSPTVNGSRAGGIIAACWATMMSFGYDGYLEATKRIVDTARYIERGVRDIDGIFIFGKPATSVIALGSNVFDIFRLSDSLCKLGWNLNALQFPSGIHLCVTDMHTQPGVADKFIADVRSCTAEIMKDPGQPVVGKMALYGMAQSIPDRSVIGEVTRLFLHSMYYTPSQK
B2: Small wing (Sl) (protein, UniProt Q9VXH3 1-1236)
chain: MSCFSAMSAPLLGEMEQTIGMLERGTIVTKLYGKQRRPDRRHLMLIRETRQLLWATVATQTPRTDYEGAIQLREIREIRVGKHSKEFRLFADDCQRFESSKCFVILHGNHFKLKSFSVVALSEIEADNWVRGLRYMVKDTLGAPYPLQIDRWLRREYYQIENVNTHSAKATEQSPAQVTIKDFKLFLAGVSCKMTTGKFMEHFTEDVRRKHDLKFDDFSRLYQKLLLPNGFASVLSGSGVANFPYSEDQQVVRPAELKQFLETEQRDVSASEISSAAIASFIRDFVQDVERDVQEPYLTFPEFVDFLFSKQNDLWNSKYDQVFMDMNLPLSSYWIASSHNTYLTGDQFSSESSCEAYARALRMGCRCIELDCWNGPDNLPYIFHGHTITSKIKFMDVIKTIKDHAFTSSEYPVILSIEQNCSLEQQRNMAQALIEVFGDMLLTQPCDRNEQHLPSPYQLRRKIILKHKKLPQFDDIANGISSTGSLGHRSSLGGAGGGAHGENDGENVRKVFKEGLLYFKDPVDKSWNLYQFVLTHQELIYSSEINESRNGNSEDDDFGLSSSCSLNSNMQQKQKDTSANDELHFGENWFHGKLEGGRKEADDLLKKYKHFGDGTFLVRESATFVGDYSLSFWRRNRPNHCRIKLKHENGSIKYYLVENFVFDSLYSLIVYYRKNMLRSSEFSIILKEPVPQPKKHEDQEWFHPNTTKEQAEQGLYRLEIGSFLVRPSVQSINAFVISFTINRKIKHCRIMQEGRLYGIDTMNFESLVSLINYYTRNPLYRNVKLSHPVSQELLRQALAEAAQGDHSGGHDDNGASNYMGSNLEENVTCKALYSYKANKPDELSFPKHAIITNVQRDNSMWWIGDYGGMIKKHLPANYVKVIDSTTEDYNSLNEEGTDGRTDSIEIFGAVASLFESNDPGIIFKLQIQTPTMQNPFVIGFDNQETAYEWIKAIQEAALIASQLASERRKKERTARVAKEMSDLIIYFRSVPFREHSWIFQEMSSFPETKAEKQFFQQNTQLFLSYHRNQISRVYPKGQRLDSSNFNPMPFWNVGSQMIALNYQTGDKAMQLNQAKFRNNGQCGYILKPSFMKSDSFNPNNPLCDGLSEVKVSIRLIAARHLFRGGKSNNPQIVVELIGASFDTGVKYRTKVNENGFNPVWNESCEFNVRNPQFAILRFEVQDEDMFAETHFIAQACYPLTCIRQGYRSVILRNKFSEELELSSLLINIKIANVTAP
B3: very-long-chain enoyl-CoA reductase Sc2 (protein, UniProt Q9VZL3 1-302)
chain: MELEILNAKNSKPYGKVKVPSGATPIGDLRALIHKTLKQTPHANRQSLRLELKGKSLKDTDTLESLSLRSGDKIYVKDLGPQIGWKTVFLAEYAGPLIVYLIFYFRPELVYGKAASLPISLTTHIAAGCYTVHYVKRLLETIFVHRFSHATMPLRNLFKNCTYYWGFTAYVSYHVNHPQFTSPCMCTVWGALGAFALCELGNFSVHIALRNLRPPGTKVRKIPVADGNPLTKLFDLVSCPNYTYEIGAWVSFSVLTSCLAAYLFAFAGAFQMTIWALAKHRNYKKEFKDYPRQRRSIFPFVL

In the test the target is dGOLPH3-mRFP (Drosophila) (UniProt Q9VQ93). Nature of the test: affinity purification with mass spectrometry; RFP-trap beads on lysate of 3000 adult testes expressing dGOLPH3-RFP (RFP alone as control); lysis buffer 25 mM Tris-HCl pH 7.4, 150 mM NaCl, 1 mM EDTA, 1% NP-40; washes at 4 °C; nanoLC-MS/MS.
In the case of B1, the binding entry is given as “binds”.
For the molecule B2, the binding result is “binds”.
Under B3 stands “binds”.

These data come from paper PMC8468827.
